# Experimental data as given in paper PMC7473771.
# Protein sequences, listed by entry. Tags and fused reporters are not part of them. Lines headed by an entry give the natural chain unless they say otherwise; changes in a name come on top. Chains listed by the source or under a name are the forms on record and can include a tag or linker.
# UniProt O15027: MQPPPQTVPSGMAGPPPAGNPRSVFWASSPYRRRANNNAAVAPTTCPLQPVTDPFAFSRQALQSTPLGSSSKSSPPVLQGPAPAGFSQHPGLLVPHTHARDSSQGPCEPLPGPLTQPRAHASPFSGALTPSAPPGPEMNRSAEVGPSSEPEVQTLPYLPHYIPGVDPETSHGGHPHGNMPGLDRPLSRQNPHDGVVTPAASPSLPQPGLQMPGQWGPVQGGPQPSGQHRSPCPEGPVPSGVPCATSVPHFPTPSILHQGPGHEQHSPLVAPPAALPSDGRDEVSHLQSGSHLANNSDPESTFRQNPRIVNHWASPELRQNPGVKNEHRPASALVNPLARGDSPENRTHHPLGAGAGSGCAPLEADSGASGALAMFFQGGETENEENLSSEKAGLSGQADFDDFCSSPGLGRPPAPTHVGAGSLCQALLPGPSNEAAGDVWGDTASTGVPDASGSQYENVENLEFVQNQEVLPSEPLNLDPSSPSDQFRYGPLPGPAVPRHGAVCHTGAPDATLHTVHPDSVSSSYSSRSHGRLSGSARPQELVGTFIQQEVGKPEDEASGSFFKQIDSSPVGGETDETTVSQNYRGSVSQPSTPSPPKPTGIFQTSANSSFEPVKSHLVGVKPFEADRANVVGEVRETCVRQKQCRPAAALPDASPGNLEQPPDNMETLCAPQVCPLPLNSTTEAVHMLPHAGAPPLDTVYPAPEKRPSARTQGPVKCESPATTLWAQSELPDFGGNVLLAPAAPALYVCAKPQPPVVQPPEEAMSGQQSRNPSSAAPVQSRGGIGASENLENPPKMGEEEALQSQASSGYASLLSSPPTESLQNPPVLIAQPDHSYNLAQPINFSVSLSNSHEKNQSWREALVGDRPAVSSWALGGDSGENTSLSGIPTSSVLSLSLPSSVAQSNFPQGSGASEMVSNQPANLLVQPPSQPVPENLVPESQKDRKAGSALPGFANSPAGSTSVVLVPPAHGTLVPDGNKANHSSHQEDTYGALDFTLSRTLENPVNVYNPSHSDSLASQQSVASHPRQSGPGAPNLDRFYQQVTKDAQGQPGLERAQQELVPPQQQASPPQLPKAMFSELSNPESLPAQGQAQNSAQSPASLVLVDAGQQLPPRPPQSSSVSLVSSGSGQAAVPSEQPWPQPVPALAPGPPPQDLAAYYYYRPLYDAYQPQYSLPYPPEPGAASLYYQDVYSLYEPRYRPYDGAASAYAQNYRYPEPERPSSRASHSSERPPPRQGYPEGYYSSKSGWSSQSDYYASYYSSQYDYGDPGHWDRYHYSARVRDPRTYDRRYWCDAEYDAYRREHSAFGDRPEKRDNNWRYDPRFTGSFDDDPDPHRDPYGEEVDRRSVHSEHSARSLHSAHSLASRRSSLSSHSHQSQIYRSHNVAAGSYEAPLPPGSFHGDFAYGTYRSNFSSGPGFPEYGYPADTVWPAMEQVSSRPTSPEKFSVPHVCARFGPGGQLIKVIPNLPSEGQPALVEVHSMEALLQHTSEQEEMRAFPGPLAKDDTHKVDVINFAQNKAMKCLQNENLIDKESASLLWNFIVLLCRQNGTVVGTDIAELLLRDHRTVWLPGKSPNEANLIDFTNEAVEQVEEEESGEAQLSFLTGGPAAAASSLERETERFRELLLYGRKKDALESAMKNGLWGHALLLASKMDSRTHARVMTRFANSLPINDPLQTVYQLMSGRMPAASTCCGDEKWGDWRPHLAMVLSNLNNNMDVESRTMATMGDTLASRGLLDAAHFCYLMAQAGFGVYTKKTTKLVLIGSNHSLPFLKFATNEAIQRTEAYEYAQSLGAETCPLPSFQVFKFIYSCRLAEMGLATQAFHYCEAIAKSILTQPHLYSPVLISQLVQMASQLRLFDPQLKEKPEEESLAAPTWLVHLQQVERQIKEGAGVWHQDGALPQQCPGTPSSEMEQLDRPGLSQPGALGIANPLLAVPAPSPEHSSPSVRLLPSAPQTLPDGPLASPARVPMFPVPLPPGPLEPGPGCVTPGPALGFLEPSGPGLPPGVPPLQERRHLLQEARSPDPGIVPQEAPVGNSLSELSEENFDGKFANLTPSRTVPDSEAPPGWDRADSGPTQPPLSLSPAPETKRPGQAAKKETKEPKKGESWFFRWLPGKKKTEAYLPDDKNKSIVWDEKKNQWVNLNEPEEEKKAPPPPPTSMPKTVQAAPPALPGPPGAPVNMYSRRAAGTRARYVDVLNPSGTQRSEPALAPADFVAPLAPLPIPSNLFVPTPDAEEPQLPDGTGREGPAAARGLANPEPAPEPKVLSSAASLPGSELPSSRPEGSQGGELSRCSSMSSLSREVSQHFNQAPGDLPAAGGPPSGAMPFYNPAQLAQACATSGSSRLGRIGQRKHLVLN
# UniProt Q9NSY1: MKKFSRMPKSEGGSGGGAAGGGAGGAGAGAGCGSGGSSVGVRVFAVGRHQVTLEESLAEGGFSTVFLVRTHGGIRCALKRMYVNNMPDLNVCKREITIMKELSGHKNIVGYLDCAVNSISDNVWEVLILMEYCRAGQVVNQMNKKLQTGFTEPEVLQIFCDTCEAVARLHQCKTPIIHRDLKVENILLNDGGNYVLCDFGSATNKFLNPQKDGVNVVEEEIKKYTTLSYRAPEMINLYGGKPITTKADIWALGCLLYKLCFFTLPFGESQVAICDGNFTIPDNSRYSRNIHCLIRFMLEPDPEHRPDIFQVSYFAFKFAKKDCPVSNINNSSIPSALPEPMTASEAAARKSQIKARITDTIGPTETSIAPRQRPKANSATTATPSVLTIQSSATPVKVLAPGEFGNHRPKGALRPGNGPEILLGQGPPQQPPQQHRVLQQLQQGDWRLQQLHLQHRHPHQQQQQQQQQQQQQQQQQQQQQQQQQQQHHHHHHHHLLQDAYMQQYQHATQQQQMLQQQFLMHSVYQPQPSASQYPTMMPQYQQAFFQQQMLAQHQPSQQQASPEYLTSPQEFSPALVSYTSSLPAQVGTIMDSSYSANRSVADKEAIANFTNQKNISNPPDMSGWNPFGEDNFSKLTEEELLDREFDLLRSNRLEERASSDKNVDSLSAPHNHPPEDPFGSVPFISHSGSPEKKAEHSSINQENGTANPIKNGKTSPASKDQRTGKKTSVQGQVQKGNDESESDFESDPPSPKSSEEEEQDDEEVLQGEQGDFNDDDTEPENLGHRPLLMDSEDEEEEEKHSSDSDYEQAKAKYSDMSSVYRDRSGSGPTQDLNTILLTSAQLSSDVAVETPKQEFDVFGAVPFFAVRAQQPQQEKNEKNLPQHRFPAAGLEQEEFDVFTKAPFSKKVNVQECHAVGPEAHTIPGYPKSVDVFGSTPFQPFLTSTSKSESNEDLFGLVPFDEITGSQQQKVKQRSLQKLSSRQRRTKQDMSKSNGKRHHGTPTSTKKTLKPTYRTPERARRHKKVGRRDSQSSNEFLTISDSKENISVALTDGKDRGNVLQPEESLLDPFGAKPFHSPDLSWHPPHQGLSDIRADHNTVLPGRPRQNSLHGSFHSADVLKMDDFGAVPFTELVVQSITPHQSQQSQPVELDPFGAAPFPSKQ
# BMP2K-S (shorter splicing variant of bone morphogenetic protein 2-inducible kinase), non-tagged (Q9NSY1-2, form named): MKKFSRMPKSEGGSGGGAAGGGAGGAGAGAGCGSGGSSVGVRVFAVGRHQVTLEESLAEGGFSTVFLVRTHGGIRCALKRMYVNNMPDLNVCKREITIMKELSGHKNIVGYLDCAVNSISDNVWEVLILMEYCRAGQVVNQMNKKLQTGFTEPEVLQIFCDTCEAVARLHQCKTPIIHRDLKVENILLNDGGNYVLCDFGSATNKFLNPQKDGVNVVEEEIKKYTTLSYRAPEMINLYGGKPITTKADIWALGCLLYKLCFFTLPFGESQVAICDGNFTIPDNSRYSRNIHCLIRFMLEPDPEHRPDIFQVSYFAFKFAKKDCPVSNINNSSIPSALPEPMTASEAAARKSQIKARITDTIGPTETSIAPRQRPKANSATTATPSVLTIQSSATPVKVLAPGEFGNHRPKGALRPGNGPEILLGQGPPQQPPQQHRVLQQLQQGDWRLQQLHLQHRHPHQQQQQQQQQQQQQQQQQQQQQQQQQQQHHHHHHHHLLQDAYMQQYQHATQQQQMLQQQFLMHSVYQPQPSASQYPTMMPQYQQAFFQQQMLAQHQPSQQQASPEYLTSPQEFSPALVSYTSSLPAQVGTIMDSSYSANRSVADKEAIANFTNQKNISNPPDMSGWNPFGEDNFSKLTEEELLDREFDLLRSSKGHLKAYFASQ
# These are yes or no findings as the source states them, for the method shown. Binding seen in cells or lysates may run through a third protein. Some entries that bind do so weakly or less than the wild type.
# Target: EGFP-tagged SEC16A (human) (UniProt O15027)
# Test: co-IP; HEK293 cells co-transfected with BMP2K-L or -S and EGFP only or EGFP-SEC16A; RIPA lysates; goat anti-GFP antibodies 1.5 hr at 4°C, Protein G-agarose; washes with 50 mM Hepes pH 7.5, 300 mM NaCl, 1% Triton X-100; western blotting
row,binding,Substance
1,binds,"BMP2K-L (longer splicing variant of bone morphogenetic protein 2-inducible kinase), non-tagged (from UniProt Q9NSY1 1-1161)"
2,binds,"BMP2K-S (shorter splicing variant of bone morphogenetic protein 2-inducible kinase), non-tagged (from UniProt Q9NSY1-2 1-662)"
